# Measured values as given in the supplement of paper PMC5949888.
# Most values lie at the floor of the assay. Slopes are relative: functional sequences can read slightly below zero.
# System: Saccharomyces cerevisiae PS128 hsf1 delta, HSF1(1-493) fusion
# Test: growth estimate (transactivation domain function in HSF1 fusion, heat-shock survival) (a.u. (slope of normalised read count over time)); higher = stronger growth at 37°C, i.e. more transactivation activity
# Settings: library: random library
row,Substance,growth estimate
1,NVQDTRSTTISEVDSTPPPP,< -0.25
2,NVQTAPPVQQ,< -0.25
3,NVRCTVERIEGLLI,< -0.25
4,NVRTVQAM,< -0.25
5,NVSGCDTN,< -0.25
6,NVSQIGCARATIAARPCSKL,< -0.25
7,NVTGSLPVEWATSAVGLRVR,< -0.25
8,NVTSKVVSFRTVIKFSRSVT,< -0.25
9,NVVVIG,< -0.25
10,NVWMLFTDKHVGDPRDPAHY,-0.248
11,NWCILRITRR,< -0.25
12,NWE,-0.0897
13,NWKLGALRKLQKATPIVGHH,< -0.25
14,NWNYIERGAKS,< -0.25
15,NWPGLDFMYLGIN,< -0.25
16,NWQGPAATISIEPRRELLGI,< -0.25
17,NWQRAIGRQLGRSDGPCWTT,< -0.25
18,NWQSAGNATTVR,< -0.25
19,NWVLLIL,< -0.25
20,NYCGRNMSTAFMQNLSTIAL,< -0.25
21,NYEAWVGGRDGPREES,< -0.25
22,NYQVTRLGV,< -0.25
23,NYTVIFRSMSDKSRAYRS,< -0.25
24,NYWRG,< -0.25
25,PACDNGSTSSPPLQPVCVSS,< -0.25

row,Substance,growth estimate
1,PADYLISTLPILRAS,< -0.25
2,PAEGESSRSNAFKMPPLLRH,< -0.25
3,PAFALFVVFGRFVHEPAIGH,< -0.25
4,PAGGSLKTPPLSYAREIHLS,< -0.251
5,PAGLVHGAKQLVASSMIMPA,< -0.25
6,PAGRDPSLQWVDTSVLFSLV,< -0.25
7,PAGSATTESPQNLGYYDCRR,< -0.25
8,PAHHRITQAGSLSDGIGRMI,< -0.25
9,PAICPPHG,< -0.25
10,PAIDFQL,< -0.25
11,PAKHKTRCYACWQKCVALVR,< -0.25
12,PAKIFRSETRRATVFSTPWC,< -0.25
13,PALEA,< -0.25
14,PALRRLLGCFTV,< -0.25
15,PAPLFHG,< -0.25
16,PAQSYHLRYAPEKSELFAGP,< -0.25
17,PARRTINASIADRKLASGFL,< -0.25
18,PASSFGA,< -0.25
19,PASSSTHIRLRPPRC,-0.231
20,PASWHKNIIYER,< -0.25
21,PASYGG,< -0.25
22,PATECK,< -0.25
23,PATGEGGQLGDGRPPQGSLG,< -0.25
24,PATVENRYNGDSL,< -0.25
25,PAV,< -0.25

row,Substance,growth estimate
1,PAVDSQAWARIPHIPPVPDE,< -0.25
2,PAVIPPSAW,< -0.25
3,PAVMQAYGGIPPKLQ,< -0.25
4,PAVMRGTESGRPLDITEDGH,< -0.25
5,PAVTIGGSHRSL,< -0.25
6,PAYFVRQVLSVSCADTVISR,< -0.25
7,PCCGMSG,< -0.25
8,PCDVSGELITAWSCL,< -0.25
9,PCEMQKAIAELCSGPGRQ,< -0.25
10,PCFYGPFYAPGVSVKRPLQA,< -0.25
11,PCLLTVGSDVAKCRTPDKDS,< -0.25
12,PCLPPEDKTISRFATVTRWP,< -0.25
13,PCRDNPL,< -0.25
14,PCRRIRSGGRPVLPSAGTPW,< -0.25
15,PCRRSLSCTATQAPES,< -0.25
16,PCSP,< -0.25
17,PCTIGGKRMSPAGSVPVWAH,< -0.25
18,PCTRNVDQ,< -0.25
19,PDADAI,< -0.25
20,PDATCQKRA,< -0.25
21,PDGEHFFRSGHMGTGWYRPP,< -0.25
22,PDGRTRDGTWRHRS,< -0.25
23,PDIPRAR,< -0.25
24,PDKRDVRTVALGRVITTSFL,< -0.25
25,PDKYTSTFVGYVST,< -0.25

# Some of the entries so far, with bars between the fields.
row | Substance | growth estimate
2 | PAVIPPSAW | < -0.25
5 | PAVTIGGSHRSL | < -0.25

# Later entries

row,Substance,growth estimate
1,PDLGYVVVVGMSQGVTR,< -0.25
2,PDLLDTCL,< -0.25
3,PDLLQRTLLLS,< -0.25
4,PDLMTERSRLGPGATGVAEQ,< -0.25
5,PDLTEEPKCSLRARMVPTAL,< -0.25
6,PDMATYHRWVLETPGARKSK,< -0.25
7,PDNGGVFRANTHPGILKVLL,< -0.25
8,PDPECNGETEMDGQCGDSGD,< -0.25
9,PDPGYDHGYKPILLGR,< -0.25
10,PDPGYSSEVKPAVYG,< -0.25
11,PDRLKLPSEQSGKAAVGRPK,< -0.25
12,PDRYPKEWTWGPRILLGPQG,< -0.25
13,PDTPGAPLDPW,< -0.25
14,PDTRLVVGIGPGIFSGAESC,< -0.25
15,PDVQISPGRYNKR,< -0.25
16,PEAALHRV,< -0.25
17,PEAKREGNR,< -0.25
18,PECTNVSPWVPRLPSELSVG,< -0.25
19,PED,< -0.25
20,PEECKGARLSARVKRTPQAV,< -0.25
21,PEELSESVRYTGRTGVGWES,< -0.25
22,PEGPWGAPYARGALQIWIED,< -0.25
23,PEGTGCFQRNTRGAVSALEL,< -0.25
24,PEGVYDSTPR,< -0.25
25,PEHFVSRTLSPLALAFKTRC,< -0.25

row,Substance,growth estimate
1,PEHHNAAIAPHPSWKCADAS,-0.243
2,PEHRPKSSDHNCRGSALTGA,< -0.25
3,PEI,< -0.25
4,PEIDMVGTHLQLETLWSTAT,0.0225
5,PEKDRAIARGKQTGAYPEIN,< -0.25
6,PEL,< -0.25
7,PELCYYVVEPRTSYRTDSRA,< -0.25
8,PELSIPVALVLRRHDLVR,< -0.25
9,PEPCVVSSPKIGSRCKTSPR,< -0.25
10,PEPGRCEKLIGILRTSGVRE,< -0.25
11,PEQKPRGRERNRCASGLATE,< -0.25
12,PES,< -0.25
13,PESAAACDGAI,< -0.25
14,PETACELRMQATCTG,< -0.25
15,PETPLVRRFRRRCCGGDAEC,< -0.25
16,PETSLRRISEDTVIAAIGPS,< -0.25
17,PEV,< -0.25
18,PEWSVLILNVRDQTMRFWYT,-0.167
19,PEYTPYEFKSIDGKEWL,< -0.25
20,PFAGCALLPGQCVGAKHTYV,< -0.25
21,PFATYIYCDHQPIG,< -0.25
22,PFDRDLMAVGSVTTGLTYHP,< -0.25
23,PFEH,< -0.25
24,PFEPVYT,< -0.25
25,PFETRWGRNCPGPCFI,< -0.25

# Not a retest: an excerpt of the list.
row,Substance,growth estimate
2,PEHRPKSSDHNCRGSALTGA,< -0.25
3,PEI,< -0.25

# Next part

row,Substance,growth estimate
1,PFFSGSKTEQP,< -0.25
2,PFHWAPRYTERTFLRCHRR,< -0.25
3,PFLG,< -0.25
4,PFMDGVDALTERDNPHTGHP,< -0.25
5,PFRELEL,< -0.25
6,PFSNVRTRPGAKATSVHHWG,< -0.25
7,PFVVRREVVLRRLPGIYAYP,< -0.25
8,PGAAKCQPTFLFDSPIQ,< -0.25
9,PGAATSMVHP,< -0.25
10,PGAFPDHMIL,< -0.25
11,PGAGVASTGRIGTPASRGWP,< -0.25
12,PGAIARDVWTVKCVTMPGSK,< -0.25
13,PGAVDNGGL,< -0.25
14,PGCE,< -0.25
15,PGCHLVDTMTGSLVSHTTAQ,< -0.25
16,PGDDLGHTIRCVWIRRRAIC,< -0.25
17,PGEACVKSIYTSKGRSMKLT,< -0.25
18,PGEDNHSWL,< -0.25
19,PGEENHFCLWCWPVRRELRS,< -0.25
20,PGET,< -0.25
21,PGFG,-0.246
22,PGFSVDT,-0.246
23,PGG,< -0.25
24,PGGIGPGSHSGAWG,< -0.25
25,PGGLALRTLVERDCPVTGLM,< -0.25

# Fetched one by one from the entries so far:
row,Substance,growth estimate
24,PGGIGPGSHSGAWG,< -0.25
7,PFVVRREVVLRRLPGIYAYP,< -0.25
16,PGDDLGHTIRCVWIRRRAIC,< -0.25
9,PGAATSMVHP,< -0.25
17,PGEACVKSIYTSKGRSMKLT,< -0.25

# Carrying on.

row,Substance,growth estimate
1,PGGRDMSDAA,< -0.25
2,PGGSRPYDEIAERQKPARWL,< -0.25
3,PGGTSNLGRTIAKMSLYSYP,< -0.25
4,PGHI,< -0.25
5,PGHRTRSLTKRLRASGESSE,< -0.25
6,PGKGRRV,< -0.25
7,PGLDESSIRVYLRLAH,< -0.25
8,PGLLPHVGETDCYLVRFRIL,< -0.25
9,PGLRPAETARVGPTQGLNGP,< -0.25
10,PGMESRNCTALICCIDVHRG,< -0.25
11,PGNFQGD,< -0.25
12,PGNGRIWLGYYHEGLRLVRN,< -0.25
13,PGNL,< -0.25
14,PGNWYYELVGRGSHRPNALA,< -0.25
15,PGPCLMASPLH,< -0.25
16,PGPGGRSQLQALAKRKQREV,< -0.25
17,PGPHCRNQGFPKSLR,< -0.25
18,PGPISRHIKVLMLNRPSGCK,< -0.25
19,PGPLGKEFTVWVGKLSELVS,< -0.25
20,PGPYDPGA,< -0.25
21,PGRNYVCGPRGFYRVTKVGT,< -0.25
22,PGRREVEVLDEHLELSPMIH,< -0.25
23,PGRRPFAERWVMR,< -0.25
24,PGRRVWWKPAPIGRRLETSI,< -0.25
25,PGRYAGGLSAVGL,< -0.25

row,Substance,growth estimate
1,PGRYERHGAEITVRSITLRR,< -0.25
2,PGSCHTQIWWRFTYIAAMSV,< -0.25
3,PGSCYRADANVLSHRHVDVA,< -0.25
4,PGSHSQTMGRD,< -0.25
5,PGSIFFKKLAMHSGWLGNNV,-0.231
6,PGSRLAPMSWPQHGCPSP,< -0.25
7,PGTLGRIGSRTNQSLEYRIR,< -0.25
8,PGTSLEATSSPA,< -0.25
9,PGTTYEWNSRGMRGGNAFRQ,-0.236
10,PGTWSSSYGTLYGTM,< -0.25
11,PGV,< -0.25
12,PGVCVGRAPLTLAKTVAQRR,< -0.25
13,PGVIVRYPRREFNIYGQLTE,< -0.25
14,PGVKALLCCTIPAAHVRRA,< -0.25
15,PGVMLRESELSIVGHA,< -0.25
16,PGVSA,< -0.25
17,PGWFLHEQAKKQGRSQAPSR,< -0.25
18,PGWGSQG,< -0.25
19,PGWYQ,< -0.25
20,PHCSTRSW,< -0.25
21,PHEEAISASPQVARCMLAAE,< -0.25
22,PHEYCGVNMER,< -0.25
23,PHGFFWLGGSIGP,< -0.25
